The nature of data set [1]: Capacity of polymer modified glass fiber monoliths for analytes. The conditions noted are these: PSDVB sorbent; weight adsorbed at 30% breakthrough; N=3.
Test in data set [2]: as above
The conditions noted are these: PSDVB—NHCOCH3 sorbent; weight adsorbed at 30% breakthrough; N=3.

SMILES strings stand for the structures. Where a name gives a salt, the structure may show the parent alone.

`CC(C)(C)NC[C@H](O)COc1nsnc1N1CCOCC1` [Timolol maleate]: the “Amount of analyte adsorbed (sorbent capacity)” value (“Amount of analyte adsorbed” below) in data set [1] worked out at 0 µg; in data set [2], 1.2 µg.

On to `CNC(=C[N+](=O)[O-])NCCSCc1ccc(CN(C)C)o1` [Ranitidine HCl], for which the “Amount of analyte adsorbed” value in data set [1] amounted to 0 µg; in data set [2], 1.1 µg.

For `CC(C)(C)NCC(O)c1ccc(O)c(CO)c1` (stereo not shown) [Salbutamol], the “Amount of analyte adsorbed” value in data set [1] and in data set [2] was 0 µg in each case.

In the case of `CCCC(C)(COC(N)=O)COC(=O)NC(C)C` (stereo not shown) [Carisoprodol], the “Amount of analyte adsorbed” value in data set [1] is 0 µg; in data set [2], 1.2 µg.

On to `CCCCNCC(O)c1ccc(O)cc1.CCCCNCC(O)c1ccc(O)cc1.O=S(=O)(O)O` (stereo not shown) [Bamathan hemisulfate], for which the “Amount of analyte adsorbed” value in data set [1] worked out at 0 µg; in data set [2] it was 2.0 µg.

For the origin of these results see US7927486B2, “Polymer modified porous substrate for solid phase extraction” (priority 2005, dated 2011).
